Laboratory results taken from PubChem BioAssay AID192 (DTP/NCI, 2004).
The list does not hold the whole screen: it gathers some chemical classes. Not every dose and run of a compound is shown. T/C gives the treated animals as a percentage of the vehicle group. Some entries give survivors of the animals treated and no T/C: the source holds a T/C of zero for them, seemingly a mark for toxic or unscored doses. Some doses without a T/C left all or most animals alive at the check, yet need not have been tolerated: the source hardly ever lists a survival T/C far under the control, and the zero likely stands for such cases as well. Counts of survivors are from the toxicity check (mostly the fifth day) where no day follows; animals may have died later. Schedule codes are those of the source, taken here to give the interval after Q, in days (D) or hours (H), and the number of doses after X. Some doses were run more than once; the results are listed from low to high. Where survival is the endpoint, this PubChem deposit counts one and a half times the control or more as active, and values a quarter to a half above the control carry no call in these data; other NCI protocols may use other cut-offs. Some T/C values carry the count of animals alive at the toxicity check (mostly the fifth day); without a count or a note in brackets, all were alive then. Some entries show no survivor count and are marked so; the dose need not have been tolerated.

System: BDF1 mice, B16 melanoma ip, median survival T/C
Assay: NCI In Vivo Anticancer Drug Screen. Data for tumor model B16 Melanoma (intraperitoneal) in B6D2F1 (BDF1) mice
Conditions: T/C endpoint: median survival time, higher T/C = longer survival
Procedure: The antitumor activity of compounds was measured in mice bearing transplantable tumors. Survival or tumor size were measured and the results are expressed as the measurement made in the treated group (T) divided by the measurement made in the vehicle treated control group (C). The tumor model used in this assay is B16 Melanoma (intraperitoneal) in B6D2F1 (BDF1) mice

[1] = dose: 25.0 mg/kg/injection, schedule: Q01DX009 (ip), vehicle: saline
[2] = dose: 50.0 mg/kg/injection, schedule: Q01DX009 (ip), vehicle: saline
[3] = dose: 100.0 mg/kg/injection, schedule: Q01DX009 (ip), vehicle: saline
[4] = dose: 200.0 mg/kg/injection, schedule: Q01DX009 (ip), vehicle: saline
[5] = dose: 1.56 mg/kg/injection, schedule: Q01DX009 (ip), vehicle: Klucel (hydroxypropylcellulose) (HPC)
[6] = dose: 3.12 mg/kg/injection, schedule: Q01DX009 (ip), vehicle: Klucel (hydroxypropylcellulose) (HPC)
[7] = dose: 6.25 mg/kg/injection, schedule: Q01DX009 (ip), vehicle: Klucel (hydroxypropylcellulose) (HPC)
[8] = dose: 12.5 mg/kg/injection, schedule: Q01DX009 (ip), vehicle: Klucel (hydroxypropylcellulose) (HPC)
[9] = dose: 25.0 mg/kg/injection, schedule: Q01DX009 (ip), vehicle: Klucel (hydroxypropylcellulose) (HPC)
[10] = dose: 50.0 mg/kg/injection, schedule: Q01DX009 (ip), vehicle: Klucel (hydroxypropylcellulose) (HPC)
[11] = dose: 400.0 mg/kg/injection, schedule: Q01DX009 (ip), vehicle: saline
[12] = dose: 12.5 mg/kg/injection, schedule: Q01DX009 (ip), vehicle: saline

## FC1(F)SC2C3CCC(C3)C2C1(F)Cl (stereo not drawn)
dose: 0.62 mg/kg/injection, schedule: Q01DX009 (ip), vehicle: Klucel (hydroxypropylcellulose) (HPC)
  T/C: 91 % of control [9 of 10 alive]
dose: 1.25 mg/kg/injection, schedule: Q01DX009 (ip), vehicle: Klucel (hydroxypropylcellulose) (HPC)
  T/C: 100 % of control
dose: 2.5 mg/kg/injection, schedule: Q01DX009 (ip), vehicle: Klucel (hydroxypropylcellulose) (HPC)
  T/C: 99 and 103 % of control [9 of 10 alive]
dose: 5.0 mg/kg/injection, schedule: Q01DX009 (ip), vehicle: Klucel (hydroxypropylcellulose) (HPC)
  survivor count: 2 of 10
dose: 10.0 mg/kg/injection, schedule: Q01DX009 (ip), vehicle: Klucel (hydroxypropylcellulose) (HPC)
  survivor count: 4 of 10

## Nc1cc([As]=O)ccc1O (stereo not drawn)
dose: 12.5 mg/kg/injection, schedule: Q02DX009 (ip), vehicle: saline with Tween-80
  T/C: 110 % of control
dose: 25.0 mg/kg/injection, schedule: Q02DX009 (ip), vehicle: saline with Tween-80
  T/C: 110 % of control
dose: 50.0 mg/kg/injection, schedule: Q02DX009 (ip), vehicle: saline with Tween-80
  survivor count: 8 of 10
dose: 75.0 mg/kg/injection, schedule: Q02DX009 (ip), vehicle: saline with Tween-80
  survivor count: 7 of 10

## CCN(CC)CCN1CCN=C1Cc1ccccc1.O=[N+]([O-])c1cc([N+](=O)[O-])c(O)c([N+](=O)[O-])c1
dose: 50.0 mg/kg/injection, schedule: Q04DX003 (ip), vehicle: Klucel (hydroxypropylcellulose) (HPC)
  T/C: 95 % of control [survivor count not shown]
dose: 100.0 mg/kg/injection, schedule: Q04DX003 (ip), vehicle: Klucel (hydroxypropylcellulose) (HPC)
  T/C: 96 % of control [survivor count not shown]
dose: 200.0 mg/kg/injection, schedule: Q04DX003 (ip), vehicle: Klucel (hydroxypropylcellulose) (HPC)
  T/C: 96 % of control [survivor count not shown]

## CC(O)CN(CCO)CC(C)O (stereo not drawn)
dose: 66.0 mg/kg/injection, schedule: Q04DX003 (ip), vehicle: saline
  T/C: 99 % of control
dose: 100.0 mg/kg/injection, schedule: Q04DX003 (ip), vehicle: saline
  T/C: 99 % of control
dose: 150.0 mg/kg/injection, schedule: Q04DX003 (ip), vehicle: saline
  T/C: 102 % of control

## C1COP(OCCOP2OCCO2)O1
[1]
  T/C: 116 % of control
[2]
  T/C: 110 % of control
[3]
  T/C: 120 % of control
[4]
  T/C: 90 % of control

## NC(=O)Nc1ccc(N(CCCl)CCCl)cc1
[5]
  T/C: 104 and 110 % of control
[6]
  T/C: 108, 127, 133 % of control
[7]
  T/C: 124, 142 [9 of 10 alive], 145 % of control
[8]
  T/C: 147, 153, 191 % of control
[9]
  survivor count: 10 of 10 and 8 of 8
[10]
  survivor count: 8 of 8

## NC1CCCCC1.O=P(O)(NCCCO)N(CCCl)CCCl
[1]
  T/C: 128 % of control
[2]
  T/C: 159 % of control
[3]
  T/C: 219 % of control
[4]
  survivor count: 6 of 6
[11]
  survivor count: 0 of 6

## COc1ccc(P(=S)(Cl)Cl)cc1
[8]
  T/C: 100 % of control
[9]
  T/C: 86 % of control
[10]
  T/C: 91 % of control
dose: 100.0 mg/kg/injection, schedule: Q01DX009 (ip), vehicle: Klucel (hydroxypropylcellulose) (HPC)
  survivor count: 3 of 10
dose: 200.0 mg/kg/injection, schedule: Q01DX009 (ip), vehicle: Klucel (hydroxypropylcellulose) (HPC)
  survivor count: 2 of 10
dose: 400.0 mg/kg/injection, schedule: Q01DX009 (ip), vehicle: Klucel (hydroxypropylcellulose) (HPC)
  survivor count: 0 of 10

## CCOC(=O)C(CCSC)NC(=O)OCCNCCCl (stereo not drawn)
[1]
  T/C: 105 % of control
[2]
  T/C: 114 % of control
[3]
  T/C: 111 % of control

## Cc1[nH]c(=O)[nH]c(=O)c1N(CCCl)CCCl
dose: 0.5 mg/kg/injection, schedule: Q01DX009 (ip), vehicle: Klucel (hydroxypropylcellulose) (HPC)
  T/C: 155 % of control
dose: 1.0 mg/kg/injection, schedule: Q01DX009 (ip), vehicle: Klucel (hydroxypropylcellulose) (HPC)
  T/C: 107 % of control
dose: 2.0 mg/kg/injection, schedule: Q01DX009 (ip), vehicle: Klucel (hydroxypropylcellulose) (HPC)
  survivor count: 10 of 10
dose: 4.0 mg/kg/injection, schedule: Q01DX009 (ip), vehicle: Klucel (hydroxypropylcellulose) (HPC)
  survivor count: 6 of 10

## CC1(C)CN1P(=O)(Nc1ncccn1)N1CC1(C)C (stereo not drawn)
[12]
  T/C: 123 % of control
[1]
  T/C: 120 % of control
[2]
  T/C: 87 % of control
[3]
  T/C: 180 % of control
[4]
  T/C: 233 % of control
[11]
  survivor count: 10 of 10

## CC1C(c2ccccc2)OCCN1C (stereo not drawn)
[12]
  T/C: 116 % of control
[1]
  survivor count: 9 of 10
[2]
  T/C: 117 % of control
[3]
  T/C: 102 % of control
[4]
  T/C: 97 % of control [9 of 10 alive]

## O=C(CO)Nc1ccc([As](=O)(O)O)cc1
[3]
  T/C: 99 % of control
[4]
  T/C: 100 % of control
[11]
  T/C: 98 % of control

## COc1cc2c(c3oc4cccc(O)c4c(=O)c13)[C@@H]1C=CO[C@@H]1O2
dose: 3.75 mg/kg/injection, schedule: Q01DX009 (ip), vehicle: Klucel (hydroxypropylcellulose) (HPC)
  T/C: 113 % of control
dose: 4.0 mg/kg/injection, schedule: Q01DX009 (ip), vehicle: saline with Tween-80
  T/C: 101 % of control
dose: 7.5 mg/kg/injection, schedule: Q01DX009 (ip), vehicle: Klucel (hydroxypropylcellulose) (HPC)
  T/C: 124 % of control
dose: 8.0 mg/kg/injection, schedule: Q01DX009 (ip), vehicle: saline with Tween-80
  T/C: 102 % of control [9 of 10 alive]
dose: 15.0 mg/kg/injection, schedule: Q01DX009 (ip), vehicle: Klucel (hydroxypropylcellulose) (HPC)
  T/C: 129 % of control
dose: 16.0 mg/kg/injection, schedule: Q01DX009 (ip), vehicle: saline with Tween-80
  T/C: 122 % of control
dose: 30.0 mg/kg/injection, schedule: Q01DX009 (ip), vehicle: Klucel (hydroxypropylcellulose) (HPC)
  T/C: 146 % of control
dose: 32.0 mg/kg/injection, schedule: Q01DX009 (ip), vehicle: saline with Tween-80
  T/C: 125 % of control
dose: 60.0 mg/kg/injection, schedule: Q01DX009 (ip), vehicle: Klucel (hydroxypropylcellulose) (HPC)
  survivor count: 10 of 10
dose: 64.0 mg/kg/injection, schedule: Q01DX009 (ip), vehicle: saline with Tween-80
  T/C: 145 % of control
dose: 128.0 mg/kg/injection, schedule: Q01DX009 (ip), vehicle: saline with Tween-80
  T/C: 93 % of control

## CCN(CC)CCOC(=O)C(O)(c1ccccc1)c1cc(C)cc(C)c1C (stereo not drawn)
[9]
  T/C: 103 % of control

## Cc1ccc(P(=S)(Cl)Cl)cc1
[8]
  T/C: 100 % of control
[9]
  T/C: 94 % of control
[10]
  T/C: 88 % of control

## ICCN(CCI)c1cccc2ccccc12
[5]
  T/C: 119 % of control
[6]
  T/C: 137 % of control
[7]
  T/C: 130 % of control
[8]
  T/C: 146 % of control
[9]
  T/C: 157 % of control
[10]
  survivor count: 10 of 10
